Experimental data reported in patent publication US20220185844A1, “PEPTIDE-DERIVED THERAPEUTICS TARGETING SET8 FOR THE TREATMENT OF CANCER” (NUVOBIO CORPORATION, priority 2019, published 2022).
No constants are given. Whether binding was seen depends on the method and setting. Some binding calls cover weakened binding; strength is not graded here. Where a sequence is shown, tags or fusion partners need not be part of it.

T1: Recombinant Set8-His6x, pHIS2 Set8(191-352) (Homo sapiens (Human)) (UniProt Q9NQR1)
T1 sequence: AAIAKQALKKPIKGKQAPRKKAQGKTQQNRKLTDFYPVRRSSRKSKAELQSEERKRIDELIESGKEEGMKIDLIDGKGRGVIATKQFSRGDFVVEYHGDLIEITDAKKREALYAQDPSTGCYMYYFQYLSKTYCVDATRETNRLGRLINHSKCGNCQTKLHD


Legend:
[1] = target: T1, Recombinant Set8-His6x, pHIS2 Set8(191-352) (Homo sapiens (Human)); assay: OPAL/SPOT peptide arrays probed with 1 µM Set8-His6x, anti-His-HRP chemiluminescence
[2] = target: T1, Recombinant Set8-His6x, pHIS2 Set8(191-352) (Homo sapiens (Human)); assay: fluorescent polarization

Binder | binding [1] | binding [2]
THHHKHPGH [EP 13] | binds | –
THHHKHPKT [EP 5] | binds | –
THHHKHPKA [EP 15] | binds | –
THHHKHPGT [EP 11] | binds | –
THHHKHPHE [EP 10] | binds | –
THHHKHPGE [EP 23] | binds | –
THHHKHPGK [EP 16] | binds | –
SHHHKHPKA [EP 9] | binds | –
THHHKHPKH [EP 3] | binds | –
THHHKHPHT [EP 4] | binds | –
THHHKHPEG [EP 12] | binds | –
THHHKHPHG [EP 14] | binds | –
SHHHKHPGT [EP 20] | binds | –
THHHKHPHH [EP 2] | binds | –
THHHKHPHA [EP 1] | binds | –
THHHKHPKK [EP 17] | binds | –

The remaining lines, values ahead:

binding [1] | binding [2] | Binder
binds | – | THHHKHPGG (also called EP 18; EP18) [KBL9]
– | binds | THHHKHPGG (fluorescein label; position of the label not stated for the polarization assay) [fluorescein-labeled KBL9]
binds | – | THHHKHPHK (also called EP 6) [KBL2]
binds | – | THHHKHPGA (also called EP 22) [KBL6]
binds | – | THHHKHPGR (also called EP 21) [KBL4]
binds | – | SHHHKHPHG (also called EP 24) [KBL10]
binds | – | THHHKHPGQ (also called EP 19) [KBL8]
binds | – | THHHKHPEQ (also called EP 7) [KBL13]
binds | – | THHHKHPHQ (also called EP 8) [KBL15]
binds | – | SHHHKHPGH [EP 25]
